Assay [1] addresses GTP BINDING PROTEIN BETA 1 (AGB1), splice isoform AGB1.3 (Arabidopsis thaliana). The assay is described as follows: two-hybrid.
Assay [2] deals with GTP BINDING PROTEIN BETA 1 (AGB1), splice isoform AGB1.4 (Arabidopsis thaliana). As to the kind of experiment: two-hybrid.

These are yes or no findings as the source states them, for the method shown. For part of these data: Binding calls can cover weak binding; strength is not graded here.

B1: G protein γ subunit AGG3 (protein, UniProt Q6AWT8 1-251)
chain: MSAPSGGGEGGGKESAAGGVSSSSLAPSSLPPPRPKSPPEYPDLYGKRREAARVQMLEREIGFLEGEIKFIEGVQPASRCIKEVSDFVVANSDPLIPAQRKSRRSFRFWKWLCGPCLSLVSFCCCCQSKCSCHLRKPKCCNCTSCSCIGSKCCDGSCCSNICCCPRLSCPSCSCFRGCWCSCPDMSCCIPSCFRSCSCTRPSCLNKKKSSCCSCNCKIRWSSCFSCPKVRLCSCCFCNCKNLCSNPCCLAF
In the case of B1, the results for the binding result in assay [1] and in assay [2] were “no binding” and “binds”, respectively.

B2: G protein γ subunit AGG1 (protein, UniProt Q9FDX9 1-98)
chain: MREETVVYEQEESVSHGGGKHRILAELARVEQEVAFLEKELKEVENTDIVSTVCEELLSVIEKGPDPLLPLTNGPLNLGWDRWFEGPNGGEGCRCLIL
On to B2, for which the binding entry in assay [1] is “no binding”; in assay [2] it was “binds”.

B3: G protein γ subunit AGG2 (protein, UniProt Q93V47 1-100)
chain: MEAGSSNSSGQLSGRVVDTRGKHRIQAELKRLEQEARFLEEELEQLEKMDNASASCKEFLDSVDSKPDPLLPETTGPVNATWDQWFEGPKEAKRCGCSIL
In the case of B3, the figures for the binding result in assay [1] and in assay [2] were “no binding” and “binds weakly”, respectively.
